Reference: doi:10.1101/2024.12.17.628889

By UniProt entry, the sequences of proteins in these tests, tags left out. Where a name states a change or a piece, a line headed by the entry shows the natural chain unless it says otherwise. Residues count along the entry.
UniProt O75460, residues 19-977: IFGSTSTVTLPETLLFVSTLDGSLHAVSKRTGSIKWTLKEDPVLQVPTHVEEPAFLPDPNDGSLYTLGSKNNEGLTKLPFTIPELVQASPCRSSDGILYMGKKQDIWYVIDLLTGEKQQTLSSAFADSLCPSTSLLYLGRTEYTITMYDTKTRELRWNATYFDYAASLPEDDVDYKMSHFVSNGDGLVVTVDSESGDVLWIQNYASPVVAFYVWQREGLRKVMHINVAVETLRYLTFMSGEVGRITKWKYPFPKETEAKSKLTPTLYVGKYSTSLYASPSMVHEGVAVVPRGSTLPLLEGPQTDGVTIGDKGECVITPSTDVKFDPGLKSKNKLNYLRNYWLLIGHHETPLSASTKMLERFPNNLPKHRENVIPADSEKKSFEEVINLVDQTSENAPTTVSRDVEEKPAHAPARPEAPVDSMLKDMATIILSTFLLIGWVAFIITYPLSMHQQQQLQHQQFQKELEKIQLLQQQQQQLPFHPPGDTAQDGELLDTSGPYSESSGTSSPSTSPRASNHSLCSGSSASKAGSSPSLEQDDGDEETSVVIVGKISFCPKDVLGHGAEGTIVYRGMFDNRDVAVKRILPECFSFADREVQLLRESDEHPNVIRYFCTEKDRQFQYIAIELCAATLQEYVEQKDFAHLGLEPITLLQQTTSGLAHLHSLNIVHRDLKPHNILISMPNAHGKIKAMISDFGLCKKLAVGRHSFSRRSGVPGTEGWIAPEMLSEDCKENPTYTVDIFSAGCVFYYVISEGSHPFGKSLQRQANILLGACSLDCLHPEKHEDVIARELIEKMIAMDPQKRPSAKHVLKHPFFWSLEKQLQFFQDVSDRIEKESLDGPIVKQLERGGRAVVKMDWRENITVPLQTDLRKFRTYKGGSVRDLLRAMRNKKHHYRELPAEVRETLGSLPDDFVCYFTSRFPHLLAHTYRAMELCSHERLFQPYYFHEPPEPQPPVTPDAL
UniProt Q49AH0: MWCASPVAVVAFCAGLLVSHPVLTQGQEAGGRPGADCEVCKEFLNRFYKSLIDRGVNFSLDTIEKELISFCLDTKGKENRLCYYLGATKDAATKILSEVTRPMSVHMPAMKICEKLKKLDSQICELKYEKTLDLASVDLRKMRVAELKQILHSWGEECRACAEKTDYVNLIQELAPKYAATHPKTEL

Target: IRE1α BiFC construct (pEZY BiFC IRE1a-NV(CV)) (UniProt O75460)
Test: split reporter

binding	Substance
binds	C-terminal domain of CDNF (C-CDNF) BiFC construct (pre-NV-C-CDNF) (from UniProt Q49AH0) (domain or fragment)
binds	N-terminal domain of CDNF (N-CDNF) BiFC construct (pre-NV-N-CDNF) (from UniProt Q49AH0) (domain or fragment)

These are yes or no findings as the source states them, for the method shown. In cells and extracts the contact can be indirect. Binding can be weak; no strength is given.
